Assay results: patent publication US10400224B2, “Enantioselective modified esterase enzyme and method for the production thereof” (CORPORACIÓN CORPOGEN, priority 2014, dated 2019)
Some of these results come from one statement about several compounds together.

Tested on: modified esterase 499EST
Experiment: Effect of organic solvents on the modified esterase
Type: biochemical, Acidicaldus organivorans USBA-GBX-499
Method: The activity of the modified enzyme was determined spectrophotometrically at 405 nm in a range of temperatures between 45 and 75° C., using p-nitro phenyl of other chains C6 to C10 (Sigma-Aldrich) as substrate. One unit of esterase activity was defined as the capacity of the enzyme to release 1 μmol min^−1 of p-nitrophenol under the essay conditions. The molar absorbance coefficient was of 16.900 M^−1 cm^−1. The mixture consisted of 448 μl of the Tris-HCl 50 mM buffer at 9.0 pH that contained 50 μl of p-nitrophenyl diluted in isopropanol and 2 μl of the solution stock of the protein. All the assays were made by triplicate and the average was calculated.
The evaluation of metallic, solvent and detergent ions and inhibitors of the modified enzyme was carried out incubating the enzyme in the presence of each of them for one hour at 30° C. The evaluation established the stability of the referenced enzyme at a control for which the enzyme was in absence of the additive. The result was expressed in percentage of residual activity, being 100% the control.
Effect of organic solvents. The activity of the enzyme was evaluated in presence of different organic solvents. Two concentrations were evaluated, 15 and 30% of 1 butanol, 2 butanol, acetonitrile, acetone, 1-propanol, 2-propanol, methanol, ethanol, glycerol, dimethyl sulfoxide (DMSO), dimethyl formamide (DMF) (Table 3)

Row | Structure (SMILES) | increase in activity compared with the enzyme in absence of the solvent
1 | C[S+](C)[O-] [DMSO, dimethyl sulfoxide] | up to 100%
2 | OCC(O)CO [Glicerol, glycerol] | up to 100%
